Experimental data as given in the supplement of paper PMC12819154, “High-throughput peptide-centric local stability assay extends protein–ligand identification to membrane proteins, tissues and bacteria” (Nature Structural & Molecular Biology, 2025).
The other results are listed elsewhere or left out. Most entries show no effect beyond the scatter of the controls.

Amino acid sequences for entries named in this document (tags omitted). A change or cut given only in a name is not applied to a line headed by its entry.
UniProt Q9WTI7, whole entry: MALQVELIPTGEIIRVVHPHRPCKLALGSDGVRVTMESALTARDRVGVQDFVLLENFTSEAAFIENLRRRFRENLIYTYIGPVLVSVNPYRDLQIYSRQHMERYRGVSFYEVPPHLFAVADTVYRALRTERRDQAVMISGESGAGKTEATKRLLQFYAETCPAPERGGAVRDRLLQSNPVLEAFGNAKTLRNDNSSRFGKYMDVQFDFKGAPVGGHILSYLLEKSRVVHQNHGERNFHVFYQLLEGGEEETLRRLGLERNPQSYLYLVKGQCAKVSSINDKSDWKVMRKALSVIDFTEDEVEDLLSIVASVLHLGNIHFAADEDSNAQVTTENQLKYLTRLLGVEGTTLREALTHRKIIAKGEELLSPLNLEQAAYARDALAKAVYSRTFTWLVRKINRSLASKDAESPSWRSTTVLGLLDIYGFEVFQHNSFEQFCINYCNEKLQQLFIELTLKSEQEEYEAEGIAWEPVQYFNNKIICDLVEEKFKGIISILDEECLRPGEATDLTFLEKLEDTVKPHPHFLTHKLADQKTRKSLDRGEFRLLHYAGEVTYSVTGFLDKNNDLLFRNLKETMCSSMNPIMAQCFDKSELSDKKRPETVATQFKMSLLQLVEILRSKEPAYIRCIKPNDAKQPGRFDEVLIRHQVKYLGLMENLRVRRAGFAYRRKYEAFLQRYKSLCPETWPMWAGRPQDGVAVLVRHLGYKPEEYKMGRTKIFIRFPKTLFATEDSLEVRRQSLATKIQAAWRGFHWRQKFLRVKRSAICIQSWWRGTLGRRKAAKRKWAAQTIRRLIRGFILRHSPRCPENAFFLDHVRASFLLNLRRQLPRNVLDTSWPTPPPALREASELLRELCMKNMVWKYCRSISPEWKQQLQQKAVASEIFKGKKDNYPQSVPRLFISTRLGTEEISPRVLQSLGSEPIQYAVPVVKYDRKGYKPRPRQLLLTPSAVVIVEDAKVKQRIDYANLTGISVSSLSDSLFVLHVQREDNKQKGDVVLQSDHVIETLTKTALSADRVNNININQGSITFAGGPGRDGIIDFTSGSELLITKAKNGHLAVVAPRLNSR
UniProt Q9R0A0, whole entry: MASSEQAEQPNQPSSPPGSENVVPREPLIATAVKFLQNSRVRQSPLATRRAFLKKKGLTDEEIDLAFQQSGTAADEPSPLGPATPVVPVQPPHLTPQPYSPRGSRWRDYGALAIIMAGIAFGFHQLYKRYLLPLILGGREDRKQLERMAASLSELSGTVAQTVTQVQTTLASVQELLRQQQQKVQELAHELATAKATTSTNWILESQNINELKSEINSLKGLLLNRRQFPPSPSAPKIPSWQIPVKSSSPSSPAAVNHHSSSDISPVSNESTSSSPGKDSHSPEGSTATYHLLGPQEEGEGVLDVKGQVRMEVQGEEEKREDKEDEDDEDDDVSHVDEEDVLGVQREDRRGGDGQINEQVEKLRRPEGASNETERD
UniProt Q9Z0P5: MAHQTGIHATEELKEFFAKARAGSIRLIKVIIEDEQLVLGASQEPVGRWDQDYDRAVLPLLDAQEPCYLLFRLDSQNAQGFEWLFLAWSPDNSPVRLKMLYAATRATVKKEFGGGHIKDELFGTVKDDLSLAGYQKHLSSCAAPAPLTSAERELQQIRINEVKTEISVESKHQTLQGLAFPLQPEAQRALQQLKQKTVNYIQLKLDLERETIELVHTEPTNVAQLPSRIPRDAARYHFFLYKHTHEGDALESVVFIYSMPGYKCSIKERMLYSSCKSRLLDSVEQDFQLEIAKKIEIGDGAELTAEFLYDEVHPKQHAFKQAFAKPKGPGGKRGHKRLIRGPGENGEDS
UniProt Q9WV55: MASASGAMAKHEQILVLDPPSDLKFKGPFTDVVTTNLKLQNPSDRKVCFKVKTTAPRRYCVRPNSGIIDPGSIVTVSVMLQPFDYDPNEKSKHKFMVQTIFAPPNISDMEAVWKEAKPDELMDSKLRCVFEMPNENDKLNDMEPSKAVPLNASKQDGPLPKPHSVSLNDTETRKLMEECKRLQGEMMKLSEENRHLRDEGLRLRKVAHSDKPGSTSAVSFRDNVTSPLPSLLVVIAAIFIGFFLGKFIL
UniProt Q9QYI4: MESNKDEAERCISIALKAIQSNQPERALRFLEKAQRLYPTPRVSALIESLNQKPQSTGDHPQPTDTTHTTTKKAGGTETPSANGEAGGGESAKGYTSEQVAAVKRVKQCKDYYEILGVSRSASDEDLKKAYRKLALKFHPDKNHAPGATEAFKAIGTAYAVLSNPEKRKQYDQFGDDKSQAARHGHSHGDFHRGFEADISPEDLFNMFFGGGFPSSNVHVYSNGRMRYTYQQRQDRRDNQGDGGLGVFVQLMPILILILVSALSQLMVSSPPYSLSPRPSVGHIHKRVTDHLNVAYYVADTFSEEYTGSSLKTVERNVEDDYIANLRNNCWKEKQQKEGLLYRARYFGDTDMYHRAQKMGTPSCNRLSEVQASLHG
UniProt Q9R0H0: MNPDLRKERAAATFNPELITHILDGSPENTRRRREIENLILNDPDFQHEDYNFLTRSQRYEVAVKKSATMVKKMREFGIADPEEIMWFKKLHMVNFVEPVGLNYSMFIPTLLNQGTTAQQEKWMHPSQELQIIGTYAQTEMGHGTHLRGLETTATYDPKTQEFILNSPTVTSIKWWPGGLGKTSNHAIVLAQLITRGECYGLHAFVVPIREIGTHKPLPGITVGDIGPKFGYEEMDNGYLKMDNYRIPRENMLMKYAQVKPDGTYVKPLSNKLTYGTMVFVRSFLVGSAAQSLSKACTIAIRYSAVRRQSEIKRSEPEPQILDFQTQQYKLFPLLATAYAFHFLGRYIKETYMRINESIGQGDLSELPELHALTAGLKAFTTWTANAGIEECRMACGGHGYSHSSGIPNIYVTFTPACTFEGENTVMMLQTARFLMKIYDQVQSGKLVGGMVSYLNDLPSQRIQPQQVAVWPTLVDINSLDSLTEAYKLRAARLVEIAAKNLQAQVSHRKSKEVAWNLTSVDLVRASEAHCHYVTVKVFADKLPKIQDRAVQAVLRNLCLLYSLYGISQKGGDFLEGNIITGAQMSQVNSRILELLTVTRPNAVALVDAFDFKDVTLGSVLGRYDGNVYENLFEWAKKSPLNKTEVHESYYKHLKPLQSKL
UniProt Q9QZ08, whole entry: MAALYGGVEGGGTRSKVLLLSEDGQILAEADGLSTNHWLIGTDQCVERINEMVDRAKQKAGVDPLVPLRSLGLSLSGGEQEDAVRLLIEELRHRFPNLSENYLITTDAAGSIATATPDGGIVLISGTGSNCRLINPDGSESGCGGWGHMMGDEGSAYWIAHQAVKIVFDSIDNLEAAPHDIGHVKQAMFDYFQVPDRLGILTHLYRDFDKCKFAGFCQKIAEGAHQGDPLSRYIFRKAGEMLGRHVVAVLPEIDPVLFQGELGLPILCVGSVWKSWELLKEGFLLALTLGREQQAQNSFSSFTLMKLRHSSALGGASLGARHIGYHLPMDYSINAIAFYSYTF
UniProt Q9R111: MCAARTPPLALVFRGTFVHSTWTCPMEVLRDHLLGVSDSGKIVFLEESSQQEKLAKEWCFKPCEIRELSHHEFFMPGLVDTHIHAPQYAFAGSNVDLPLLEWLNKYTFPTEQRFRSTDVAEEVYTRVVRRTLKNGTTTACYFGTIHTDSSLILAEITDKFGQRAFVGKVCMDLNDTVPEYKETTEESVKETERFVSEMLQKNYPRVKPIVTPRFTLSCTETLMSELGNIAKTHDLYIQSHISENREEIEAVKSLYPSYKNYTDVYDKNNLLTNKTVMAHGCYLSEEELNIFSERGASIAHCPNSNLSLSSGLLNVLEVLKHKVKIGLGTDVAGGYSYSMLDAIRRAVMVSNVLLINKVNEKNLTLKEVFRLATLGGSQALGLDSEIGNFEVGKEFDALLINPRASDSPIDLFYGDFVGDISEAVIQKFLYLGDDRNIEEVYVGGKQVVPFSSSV
UniProt Q9WTQ5: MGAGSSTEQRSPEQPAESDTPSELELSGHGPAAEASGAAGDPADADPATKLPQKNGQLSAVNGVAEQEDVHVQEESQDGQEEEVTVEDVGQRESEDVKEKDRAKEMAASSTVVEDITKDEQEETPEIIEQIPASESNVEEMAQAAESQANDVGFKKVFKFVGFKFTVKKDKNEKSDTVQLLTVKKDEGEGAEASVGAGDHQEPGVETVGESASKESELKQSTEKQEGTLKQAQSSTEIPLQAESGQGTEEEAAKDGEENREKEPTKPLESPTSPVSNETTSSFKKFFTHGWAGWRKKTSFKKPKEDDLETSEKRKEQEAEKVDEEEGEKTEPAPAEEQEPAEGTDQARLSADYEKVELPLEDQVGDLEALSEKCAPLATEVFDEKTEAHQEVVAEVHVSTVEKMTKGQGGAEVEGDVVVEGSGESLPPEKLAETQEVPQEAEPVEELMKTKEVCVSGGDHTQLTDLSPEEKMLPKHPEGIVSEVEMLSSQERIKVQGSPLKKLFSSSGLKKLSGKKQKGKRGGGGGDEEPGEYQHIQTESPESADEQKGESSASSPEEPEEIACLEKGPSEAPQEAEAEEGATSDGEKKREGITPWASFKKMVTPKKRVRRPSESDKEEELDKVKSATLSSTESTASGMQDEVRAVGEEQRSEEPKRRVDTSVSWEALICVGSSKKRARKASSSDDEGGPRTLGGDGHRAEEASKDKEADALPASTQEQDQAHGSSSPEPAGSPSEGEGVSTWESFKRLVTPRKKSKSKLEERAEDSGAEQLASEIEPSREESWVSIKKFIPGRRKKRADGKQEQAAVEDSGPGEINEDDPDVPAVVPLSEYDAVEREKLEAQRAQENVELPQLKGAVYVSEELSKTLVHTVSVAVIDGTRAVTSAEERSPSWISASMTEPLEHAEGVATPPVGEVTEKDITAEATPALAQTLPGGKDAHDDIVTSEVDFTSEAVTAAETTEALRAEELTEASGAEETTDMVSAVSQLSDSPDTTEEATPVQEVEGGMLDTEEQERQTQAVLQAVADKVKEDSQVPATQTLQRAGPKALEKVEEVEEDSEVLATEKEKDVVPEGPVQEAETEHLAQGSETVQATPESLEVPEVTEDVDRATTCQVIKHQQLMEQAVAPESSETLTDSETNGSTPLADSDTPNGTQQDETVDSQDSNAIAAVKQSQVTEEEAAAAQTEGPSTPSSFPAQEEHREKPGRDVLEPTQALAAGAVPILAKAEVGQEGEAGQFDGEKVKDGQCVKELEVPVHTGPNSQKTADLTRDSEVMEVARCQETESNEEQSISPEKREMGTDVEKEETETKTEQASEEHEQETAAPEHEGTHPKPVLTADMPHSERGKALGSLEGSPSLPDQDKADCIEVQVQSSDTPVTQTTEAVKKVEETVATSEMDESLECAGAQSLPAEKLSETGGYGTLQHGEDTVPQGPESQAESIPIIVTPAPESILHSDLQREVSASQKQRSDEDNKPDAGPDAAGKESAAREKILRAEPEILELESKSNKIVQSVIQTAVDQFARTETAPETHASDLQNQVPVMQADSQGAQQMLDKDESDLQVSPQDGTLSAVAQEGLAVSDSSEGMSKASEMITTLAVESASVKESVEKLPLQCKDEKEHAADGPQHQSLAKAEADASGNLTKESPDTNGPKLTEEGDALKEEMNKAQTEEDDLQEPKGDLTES
UniProt Q9WVG9: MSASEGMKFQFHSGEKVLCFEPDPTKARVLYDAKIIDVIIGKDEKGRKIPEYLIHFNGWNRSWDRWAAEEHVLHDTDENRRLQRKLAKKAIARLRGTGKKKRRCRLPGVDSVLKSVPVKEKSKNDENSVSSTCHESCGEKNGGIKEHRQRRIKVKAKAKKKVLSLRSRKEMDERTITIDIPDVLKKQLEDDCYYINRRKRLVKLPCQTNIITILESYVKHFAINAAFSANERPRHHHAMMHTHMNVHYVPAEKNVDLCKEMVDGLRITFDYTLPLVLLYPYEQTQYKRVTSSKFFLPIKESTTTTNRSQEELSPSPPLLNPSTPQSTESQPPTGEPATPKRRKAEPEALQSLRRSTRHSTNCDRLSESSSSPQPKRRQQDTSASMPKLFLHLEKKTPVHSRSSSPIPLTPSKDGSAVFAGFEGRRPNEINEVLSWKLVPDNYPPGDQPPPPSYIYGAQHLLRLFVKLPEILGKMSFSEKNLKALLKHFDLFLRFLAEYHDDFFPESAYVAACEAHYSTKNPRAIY
UniProt Q9WVJ3: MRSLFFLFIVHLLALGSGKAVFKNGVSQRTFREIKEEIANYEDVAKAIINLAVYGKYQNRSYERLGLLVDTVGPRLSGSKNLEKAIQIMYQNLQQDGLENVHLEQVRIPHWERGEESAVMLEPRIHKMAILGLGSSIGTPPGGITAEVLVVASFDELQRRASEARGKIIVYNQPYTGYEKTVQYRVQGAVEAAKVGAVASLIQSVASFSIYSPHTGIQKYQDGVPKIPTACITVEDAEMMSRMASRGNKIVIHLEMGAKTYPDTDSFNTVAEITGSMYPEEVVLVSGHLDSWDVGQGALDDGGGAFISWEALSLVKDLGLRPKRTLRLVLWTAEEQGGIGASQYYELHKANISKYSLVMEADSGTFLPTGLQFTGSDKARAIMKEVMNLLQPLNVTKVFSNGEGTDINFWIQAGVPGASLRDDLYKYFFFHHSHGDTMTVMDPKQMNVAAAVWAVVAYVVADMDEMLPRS

Compound: CN[C@@H]1C[C@H]2O[C@@](C)([C@@H]1OC)n1c3ccccc3c3c4c(c5c6ccccc6n2c5c31)C(=O)NC4 [staurosporine]
Experiment: log2 fold change of pooled soluble protein (PISA), ligand vs vehicle (log2 ratio); higher = more thermally stabilized
Settings: ligand concentration: 20 uM; assay format: PISA pool 52.9/55.5/58.6 C

Row | Target | log2 fold change of pooled soluble protein
1 | UniProt Q9Z103 | 0.0216
2 | UniProt Q9R099 | 0.0851
3 | UniProt Q9WTM5 | -0.0753
4 | UniProt Q9Z1T1 | 0.0577
5 | UniProt Q9QYY0 | 0.0511
6 | UniProt Q9Z211 | -0.25
7 | UniProt Q9WTI7 | 0.0496
8 | UniProt Q9R182 | 0.174
9 | UniProt Q9Z148 | -0.142
10 | UniProt Q9WVM8 | -0.00583
11 | UniProt Q9WVL0 | 0.0411
12 | UniProt Q9R0A0 | -0.0155
13 | UniProt Q9Z0P5 | 0.0383
14 | UniProt Q9WV55 | -0.15
15 | UniProt Q9Z1R3 | 0.033
16 | UniProt Q9QYI4 | 0.0513
17 | UniProt Q9QZM0 | 0.00105
18 | UniProt Q9Z0J1 | 0.0614
19 | UniProt Q9Z1J3 | -0.0683
20 | UniProt Q9Z2D8 | -0.131
21 | UniProt Q9R0H0 | -0.0121

An excerpt of these results, tab-delimited.
Row	Target	log2 fold change of pooled soluble protein
3	UniProt Q9WTM5	-0.0753
4	UniProt Q9Z1T1	0.0577
5	UniProt Q9QYY0	0.0511

(continued)

Row | Target | log2 fold change of pooled soluble protein
22 | UniProt Q9R1Q7 | -0.0806
23 | UniProt Q9R020 | 0.0763
24 | UniProt Q9Z2G9 | 0.107
25 | UniProt Q9QZ08 | -0.244
26 | UniProt Q9R111 | -0.0259
27 | UniProt Q9Z2J0 | -0.112
28 | UniProt Q9WV32 | 0.129
29 | UniProt Q9R0M4 | 0.287
30 | UniProt Q9Z2Z6 | -0.0547
31 | UniProt Q9R0A1 | 0.137
32 | UniProt Q9QZB9 | 0.00157
33 | UniProt Q9QZ25 | -0.119
34 | UniProt Q9Z2V4 | -0.0542
35 | UniProt Q9R112 | -0.0484
36 | UniProt Q9Z1G3 | 0.184
37 | UniProt Q9WTQ5 | -0.0321
38 | UniProt Q9QYY9 | -0.0465
39 | UniProt Q9QYR7 | -0.214
40 | UniProt Q9WVG9 | -0.139
41 | UniProt Q9WVJ3 | -0.131
